doi:10.1101/2022.11.29.518402 (bioRxiv, 2022)
No constants are given. Whether binding was seen depends on the method and setting. In cells and extracts the contact can be indirect. Some entries that bind do so weakly or less than the wild type. Sequences can lack the tags named with a protein.

Chains of the proteins cited; added tags and fusions are not shown. Residues count along the entry.
UniProt Q5UCC4, residues 26-262: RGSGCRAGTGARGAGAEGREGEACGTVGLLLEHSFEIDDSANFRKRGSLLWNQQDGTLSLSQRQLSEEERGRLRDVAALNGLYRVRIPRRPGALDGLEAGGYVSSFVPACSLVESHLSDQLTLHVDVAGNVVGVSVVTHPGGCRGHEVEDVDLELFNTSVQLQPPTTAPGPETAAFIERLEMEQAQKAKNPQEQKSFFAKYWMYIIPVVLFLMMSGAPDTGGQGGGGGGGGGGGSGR

Biological target: T1, GFP-EMC2 (human) (UniProt Q15006)
T1 sequence: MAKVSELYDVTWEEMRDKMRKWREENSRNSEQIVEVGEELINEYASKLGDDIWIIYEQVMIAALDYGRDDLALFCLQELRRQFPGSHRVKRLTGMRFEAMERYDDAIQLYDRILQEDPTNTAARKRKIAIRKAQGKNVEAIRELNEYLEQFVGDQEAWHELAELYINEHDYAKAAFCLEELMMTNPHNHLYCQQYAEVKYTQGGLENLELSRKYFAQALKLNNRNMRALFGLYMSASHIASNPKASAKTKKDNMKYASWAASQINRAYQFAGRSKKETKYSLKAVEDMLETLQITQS
Assay: co-IP

In the case of “EMC10 (endogenous) (from UniProt Q5UCC4 26-262)”, the binding is reported as “binds”.
